Results from publication doi:10.1101/2023.05.31.543024.
Results are given in words; binding and its absence hold for the method and conditions named. Binding seen in cells or lysates may run through a third protein. Some entries that bind do so weakly or less than the wild type. Tags and fused reporters may be left off the sequences shown.

Legend:
Test in all cases: co-IP
HA-DRG1 D280Y (human) = biological target: T1, HA-DRG1 D280Y (human) (UniProt Q9Y295)
T1 sequence: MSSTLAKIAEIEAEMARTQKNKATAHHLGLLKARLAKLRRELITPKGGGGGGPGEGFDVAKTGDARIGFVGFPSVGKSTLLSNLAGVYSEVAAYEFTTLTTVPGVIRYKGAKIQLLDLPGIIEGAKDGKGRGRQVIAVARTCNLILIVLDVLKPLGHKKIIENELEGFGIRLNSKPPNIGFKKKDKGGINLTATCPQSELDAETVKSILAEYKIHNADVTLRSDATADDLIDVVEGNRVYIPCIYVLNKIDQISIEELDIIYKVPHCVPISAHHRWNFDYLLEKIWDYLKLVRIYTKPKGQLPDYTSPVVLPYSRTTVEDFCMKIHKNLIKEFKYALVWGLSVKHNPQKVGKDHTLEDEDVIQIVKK

HA-DRG2 Y278D (human) = biological target: T2, HA-DRG2 Y278D (human) (UniProt P55039)
T2 sequence: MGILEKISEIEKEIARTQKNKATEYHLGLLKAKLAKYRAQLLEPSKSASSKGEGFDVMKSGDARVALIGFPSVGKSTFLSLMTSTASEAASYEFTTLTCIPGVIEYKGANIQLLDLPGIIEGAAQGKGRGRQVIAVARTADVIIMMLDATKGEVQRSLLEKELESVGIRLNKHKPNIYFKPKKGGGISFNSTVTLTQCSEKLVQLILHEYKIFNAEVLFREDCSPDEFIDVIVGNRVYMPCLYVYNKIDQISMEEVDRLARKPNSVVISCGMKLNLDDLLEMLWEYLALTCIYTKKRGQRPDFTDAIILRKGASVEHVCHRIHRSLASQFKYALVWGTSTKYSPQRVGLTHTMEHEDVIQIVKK

HA-DRG2 R258I (human) = biological target: T3, HA-DRG2 R258I (human) (UniProt P55039)
T3 sequence: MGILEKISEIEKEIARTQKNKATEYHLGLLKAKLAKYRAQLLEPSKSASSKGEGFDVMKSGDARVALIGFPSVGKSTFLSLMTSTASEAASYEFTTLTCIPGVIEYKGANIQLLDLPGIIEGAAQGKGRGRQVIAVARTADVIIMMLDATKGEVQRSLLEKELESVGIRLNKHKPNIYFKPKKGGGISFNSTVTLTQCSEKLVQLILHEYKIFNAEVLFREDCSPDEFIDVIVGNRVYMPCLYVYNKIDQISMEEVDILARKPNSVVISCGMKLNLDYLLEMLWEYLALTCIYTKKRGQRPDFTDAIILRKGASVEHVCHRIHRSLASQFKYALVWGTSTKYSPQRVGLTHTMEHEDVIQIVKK

HA-DRG1 I260R (human) = biological target: T4, HA-DRG1 I260R (human) (UniProt Q9Y295)
T4 sequence: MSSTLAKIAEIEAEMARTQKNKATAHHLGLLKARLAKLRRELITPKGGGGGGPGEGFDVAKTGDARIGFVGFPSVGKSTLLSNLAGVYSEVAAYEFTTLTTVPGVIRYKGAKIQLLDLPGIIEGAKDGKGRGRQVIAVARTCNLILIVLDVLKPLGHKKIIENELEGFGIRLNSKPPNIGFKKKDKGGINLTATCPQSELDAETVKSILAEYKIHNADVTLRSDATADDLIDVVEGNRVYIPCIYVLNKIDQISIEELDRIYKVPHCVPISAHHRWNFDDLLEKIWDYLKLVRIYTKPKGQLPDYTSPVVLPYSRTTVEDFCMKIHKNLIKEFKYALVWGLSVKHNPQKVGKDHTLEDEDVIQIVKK

HA-DRG1 V264K (human) = biological target: T5, HA-DRG1 V264K (human) (UniProt Q9Y295)
T5 sequence: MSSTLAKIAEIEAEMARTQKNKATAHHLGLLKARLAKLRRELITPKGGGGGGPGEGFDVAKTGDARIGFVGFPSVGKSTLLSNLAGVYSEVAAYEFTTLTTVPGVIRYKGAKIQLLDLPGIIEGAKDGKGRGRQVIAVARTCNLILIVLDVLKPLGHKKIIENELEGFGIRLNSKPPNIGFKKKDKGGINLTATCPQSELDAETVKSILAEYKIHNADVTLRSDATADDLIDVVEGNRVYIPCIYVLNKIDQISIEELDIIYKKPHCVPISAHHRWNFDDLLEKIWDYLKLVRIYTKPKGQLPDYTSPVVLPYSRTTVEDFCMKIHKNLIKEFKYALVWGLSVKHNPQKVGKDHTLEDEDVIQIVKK

B1: DRG family regulatory protein 2 (DFRP2), endogenous (protein, UniProt Q9H446 1-243)
chain: MTDYGEEQRNELEALESIYPDSFTVLSENPPSFTITVTSEAGENDETVQTTLKFTYSEKYPDEAPLYEIFSQENLEDNDVSDILKLLALQAEENLGMVMIFTLVTAVQEKLNEIVDQIKTRREEEKKQKEKEAEEAEKQLFHGTPVTIENFLNWKAKFDAELLEIKKKRMKEEEQAGKNKLSGKQLFETDHNLDTSDIQFLEDAGNNVEVDESLFQEMDDLELEDDEDDPDYNPADPESDSAD
**Q.** What does the source list for B1?
**A.** binding (HA-DRG1 D280Y (human)): binds; binding (HA-DRG2 Y278D (human)): binds; binding (HA-DRG2 R258I (human)): binds; binding (HA-DRG1 I260R (human)): no binding; binding (HA-DRG1 V264K (human)): no binding
